Read-outs that look alike come from different tables or passages of the source. These are yes or no findings as the source states them, for the method shown. Binding seen in cells or lysates may run through a third protein. These calls come from enrichment with a bait or labelling near it, and not all partners need be listed.
T1: LONP1 (human) (UniProt P36776)
T1 sequence: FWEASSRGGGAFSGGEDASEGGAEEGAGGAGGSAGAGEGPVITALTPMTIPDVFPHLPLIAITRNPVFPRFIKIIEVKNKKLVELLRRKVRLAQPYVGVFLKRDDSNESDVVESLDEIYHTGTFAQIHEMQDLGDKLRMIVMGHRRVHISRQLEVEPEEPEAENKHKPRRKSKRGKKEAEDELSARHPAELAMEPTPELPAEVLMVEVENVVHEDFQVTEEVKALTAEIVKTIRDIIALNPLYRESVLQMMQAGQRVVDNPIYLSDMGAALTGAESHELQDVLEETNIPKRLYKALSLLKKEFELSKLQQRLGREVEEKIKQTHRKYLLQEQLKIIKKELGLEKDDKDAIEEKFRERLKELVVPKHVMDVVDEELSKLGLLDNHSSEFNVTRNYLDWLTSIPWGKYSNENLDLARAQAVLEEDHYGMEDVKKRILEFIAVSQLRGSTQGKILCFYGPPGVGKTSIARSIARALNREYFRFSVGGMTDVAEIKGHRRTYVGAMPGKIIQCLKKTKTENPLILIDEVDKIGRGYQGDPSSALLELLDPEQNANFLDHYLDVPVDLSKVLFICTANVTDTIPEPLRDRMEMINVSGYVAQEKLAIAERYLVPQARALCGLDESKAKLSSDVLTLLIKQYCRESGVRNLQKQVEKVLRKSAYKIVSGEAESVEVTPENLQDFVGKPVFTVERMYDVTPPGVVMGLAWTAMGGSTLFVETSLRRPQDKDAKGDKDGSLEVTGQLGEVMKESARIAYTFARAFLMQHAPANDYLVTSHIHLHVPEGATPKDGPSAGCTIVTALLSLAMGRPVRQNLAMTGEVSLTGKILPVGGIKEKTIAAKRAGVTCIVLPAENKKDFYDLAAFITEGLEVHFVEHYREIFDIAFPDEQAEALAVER

The chains behind the UniProt entries cited, without tags or fusion partners. Residues count along the entry.
UniProt O76031, residues 57-633: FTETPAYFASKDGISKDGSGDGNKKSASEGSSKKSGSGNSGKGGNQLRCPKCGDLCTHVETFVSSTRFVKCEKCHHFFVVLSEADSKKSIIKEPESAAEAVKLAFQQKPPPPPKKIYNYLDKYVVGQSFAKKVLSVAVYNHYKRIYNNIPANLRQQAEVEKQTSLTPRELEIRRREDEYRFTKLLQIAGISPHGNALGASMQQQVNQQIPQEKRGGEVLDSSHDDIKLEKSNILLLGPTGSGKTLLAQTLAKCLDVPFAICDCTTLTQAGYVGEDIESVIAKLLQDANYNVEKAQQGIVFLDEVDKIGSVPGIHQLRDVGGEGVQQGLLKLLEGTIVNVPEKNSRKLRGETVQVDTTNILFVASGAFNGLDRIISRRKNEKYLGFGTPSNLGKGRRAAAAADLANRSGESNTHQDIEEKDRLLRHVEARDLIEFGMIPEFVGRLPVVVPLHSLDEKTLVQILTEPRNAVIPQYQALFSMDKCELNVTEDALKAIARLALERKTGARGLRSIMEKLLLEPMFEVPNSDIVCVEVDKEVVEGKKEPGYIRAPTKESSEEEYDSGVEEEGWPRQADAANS
UniProt Q9Y4W6, residues 67-797: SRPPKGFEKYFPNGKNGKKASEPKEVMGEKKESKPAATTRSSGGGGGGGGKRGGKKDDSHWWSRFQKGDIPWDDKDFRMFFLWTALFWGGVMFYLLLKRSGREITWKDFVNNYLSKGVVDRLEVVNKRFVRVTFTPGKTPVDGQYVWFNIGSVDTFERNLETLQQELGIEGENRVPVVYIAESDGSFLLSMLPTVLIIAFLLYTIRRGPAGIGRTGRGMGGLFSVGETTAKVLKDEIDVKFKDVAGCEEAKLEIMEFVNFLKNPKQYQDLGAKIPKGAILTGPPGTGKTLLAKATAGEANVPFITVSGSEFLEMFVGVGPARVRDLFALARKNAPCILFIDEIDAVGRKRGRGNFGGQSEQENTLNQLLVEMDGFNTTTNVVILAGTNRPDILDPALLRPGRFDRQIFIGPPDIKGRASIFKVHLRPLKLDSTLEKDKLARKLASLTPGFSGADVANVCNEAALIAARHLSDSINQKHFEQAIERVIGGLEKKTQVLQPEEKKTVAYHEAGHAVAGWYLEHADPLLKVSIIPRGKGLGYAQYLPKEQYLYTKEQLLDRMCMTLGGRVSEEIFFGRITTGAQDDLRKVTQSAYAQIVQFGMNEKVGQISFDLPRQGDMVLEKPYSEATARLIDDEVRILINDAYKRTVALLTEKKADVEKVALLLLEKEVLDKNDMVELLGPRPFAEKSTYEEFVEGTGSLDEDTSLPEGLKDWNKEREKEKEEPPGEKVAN

T2: PMPCB, the beta subunit of the MPP (MPPβ) (human (endogenous in fibroblasts)) (UniProt O75439)
T2 sequence: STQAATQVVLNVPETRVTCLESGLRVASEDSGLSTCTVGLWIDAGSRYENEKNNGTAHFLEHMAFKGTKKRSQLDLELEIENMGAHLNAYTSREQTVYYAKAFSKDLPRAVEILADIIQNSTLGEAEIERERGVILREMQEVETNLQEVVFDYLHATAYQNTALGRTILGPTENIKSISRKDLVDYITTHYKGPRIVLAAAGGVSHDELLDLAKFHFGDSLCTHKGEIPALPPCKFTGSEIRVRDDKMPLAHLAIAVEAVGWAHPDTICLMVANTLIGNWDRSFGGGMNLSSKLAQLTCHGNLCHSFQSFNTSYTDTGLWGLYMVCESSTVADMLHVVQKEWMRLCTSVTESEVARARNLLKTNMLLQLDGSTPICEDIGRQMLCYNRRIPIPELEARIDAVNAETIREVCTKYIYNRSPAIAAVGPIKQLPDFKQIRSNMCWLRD


How the values were obtained:
Assay in all cases: affinity purification with mass spectrometry
[1] = molecular target: T1, LONP1 (human)
[2] = molecular target: T1, LONP1 (human); remark: listed apart in the source
[3] = molecular target: T2, PMPCB, the beta subunit of the MPP (MPPβ) (human (endogenous in fibroblasts))

| binding [1] | binding [2] | Molecule | also measured |
| --- | --- | --- | --- |
| – | binds | SSBP1 (protein, UniProt Q04837 17-148) ESETTTSLVLERSLNRVHLLGRVGQDPVLRQVEGKNPVTIFSLATNEMWRSGDSEVYQLGDVSQKTTWHRISVFRPGLRDVAYQYVKKGSRIYLEGKIDYGEYMDKNNVRRQATTIIADNIIFLSDQTKEKE | – |
| – | binds | HTRA2 (enzyme, UniProt O43464 134-458) AVPSPPPASPRSQYNFIADVVEKTAPAVVYIEILDRHPFLGREVPISNGSGFVVAADGLIVTNAHVVADRRRVRVRLLSGDTYEAVVTAVDPVADIATLRIQTKEPLPTLPLGRSADVRQGEFVVAMGSPFALQNTITSGIVSSAQRPARDLGLPQTNVEYIQTDAAIDFGNSGGPLVNLDGEVIGVNTMKVTAGISFAIPSDRLREFLHRGEKKNSSSGISGSQRRYIGVMMLTLSPSILAELQLREPSFPDVQHGVLIHKVILGSPAHRAGLRPGDVILAIGEQMVQNAEDVYEAVRTQSQLAVQIRRGRETLTLYVTPEVTE | – |

The next lines start with the molecule.

| Molecule | binding [1] | binding [2] | also measured |
| --- | --- | --- | --- |
| CLPX (from UniProt O76031 57-633) | binds | – | – |
| AFG3L2 (from UniProt Q9Y4W6 67-797) (enzyme) | binds | – | – |
| LONP1 (enzyme, UniProt P36776 68-959) FWEASSRGGGAFSGGEDASEGGAEEGAGGAGGSAGAGEGPVITALTPMTIPDVFPHLPLIAITRNPVFPRFIKIIEVKNKKLVELLRRKVRLAQPYVGVFLKRDDSNESDVVESLDEIYHTGTFAQIHEMQDLGDKLRMIVMGHRRVHISRQLEVEPEEPEAENKHKPRRKSKRGKKEAEDELSARHPAELAMEPTPELPAEVLMVEVENVVHEDFQVTEEVKALTAEIVKTIRDIIALNPLYRESVLQMMQAGQRVVDNPIYLSDMGAALTGAESHELQDVLEETNIPKRLYKALSLLKKEFELSKLQQRLGREVEEKIKQTHRKYLLQEQLKIIKKELGLEKDDKDAIEEKFRERLKELVVPKHVMDVVDEELSKLGLLDNHSSEFNVTRNYLDWLTSIPWGKYSNENLDLARAQAVLEEDHYGMEDVKKRILEFIAVSQLRGSTQGKILCFYGPPGVGKTSIARSIARALNREYFRFSVGGMTDVAEIKGHRRTYVGAMPGKIIQCLKKTKTENPLILIDEVDKIGRGYQGDPSSALLELLDPEQNANFLDHYLDVPVDLSKVLFICTANVTDTIPEPLRDRMEMINVSGYVAQEKLAIAERYLVPQARALCGLDESKAKLSSDVLTLLIKQYCRESGVRNLQKQVEKVLRKSAYKIVSGEAESVEVTPENLQDFVGKPVFTVERMYDVTPPGVVMGLAWTAMGGSTLFVETSLRRPQDKDAKGDKDGSLEVTGQLGEVMKESARIAYTFARAFLMQHAPANDYLVTSHIHLHVPEGATPKDGPSAGCTIVTALLSLAMGRPVRQNLAMTGEVSLTGKILPVGGIKEKTIAAKRAGVTCIVLPAENKKDFYDLAAFITEGLEVHFVEHYREIFDIAFPDEQAEALAVER | – | – | binding [3]: binds |

From doi:10.1101/306316
